The numbers were not newly measured in patent publication US20020187219A1, “Low glycemic response compositions” (The Procter & Gamble Co., priority 2001, published 2002), which cites them from elsewhere.

For this data set the following is noted: individual sugars; glucose = reference food, 100 as defined.

Consider `OC[C@H]1O[C@H](O[C@H]2[C@H](O)[C@@H](O)C(O)O[C@@H]2CO)[C@H](O)[C@@H](O)[C@@H]1O` (mixture of isomers) [maltose], for which the “Glycemic Index” value is given as 105.
With `OC[C@H]1O[C@@](CO)(O[C@H]2O[C@H](CO)[C@@H](O)[C@H](O)[C@H]2O)[C@@H](O)[C@@H]1O` [Sucrose], the “Glycemic Index” value is 65.
